Data reported in article PMC7311514.
Where two headings read alike, the source gives them in different places. Results are given in words; binding and its absence hold for the method and conditions named. Binding seen in cells or lysates may run through a third protein. A yes stands for co-enrichment or nearness to the bait. Other partners may have been found. For some assays here: No binding means not detected with the bait.

Chains of the proteins cited; added tags and fusions are not shown. Residues count along the entry.
UniProt P35968, residues 20-1356: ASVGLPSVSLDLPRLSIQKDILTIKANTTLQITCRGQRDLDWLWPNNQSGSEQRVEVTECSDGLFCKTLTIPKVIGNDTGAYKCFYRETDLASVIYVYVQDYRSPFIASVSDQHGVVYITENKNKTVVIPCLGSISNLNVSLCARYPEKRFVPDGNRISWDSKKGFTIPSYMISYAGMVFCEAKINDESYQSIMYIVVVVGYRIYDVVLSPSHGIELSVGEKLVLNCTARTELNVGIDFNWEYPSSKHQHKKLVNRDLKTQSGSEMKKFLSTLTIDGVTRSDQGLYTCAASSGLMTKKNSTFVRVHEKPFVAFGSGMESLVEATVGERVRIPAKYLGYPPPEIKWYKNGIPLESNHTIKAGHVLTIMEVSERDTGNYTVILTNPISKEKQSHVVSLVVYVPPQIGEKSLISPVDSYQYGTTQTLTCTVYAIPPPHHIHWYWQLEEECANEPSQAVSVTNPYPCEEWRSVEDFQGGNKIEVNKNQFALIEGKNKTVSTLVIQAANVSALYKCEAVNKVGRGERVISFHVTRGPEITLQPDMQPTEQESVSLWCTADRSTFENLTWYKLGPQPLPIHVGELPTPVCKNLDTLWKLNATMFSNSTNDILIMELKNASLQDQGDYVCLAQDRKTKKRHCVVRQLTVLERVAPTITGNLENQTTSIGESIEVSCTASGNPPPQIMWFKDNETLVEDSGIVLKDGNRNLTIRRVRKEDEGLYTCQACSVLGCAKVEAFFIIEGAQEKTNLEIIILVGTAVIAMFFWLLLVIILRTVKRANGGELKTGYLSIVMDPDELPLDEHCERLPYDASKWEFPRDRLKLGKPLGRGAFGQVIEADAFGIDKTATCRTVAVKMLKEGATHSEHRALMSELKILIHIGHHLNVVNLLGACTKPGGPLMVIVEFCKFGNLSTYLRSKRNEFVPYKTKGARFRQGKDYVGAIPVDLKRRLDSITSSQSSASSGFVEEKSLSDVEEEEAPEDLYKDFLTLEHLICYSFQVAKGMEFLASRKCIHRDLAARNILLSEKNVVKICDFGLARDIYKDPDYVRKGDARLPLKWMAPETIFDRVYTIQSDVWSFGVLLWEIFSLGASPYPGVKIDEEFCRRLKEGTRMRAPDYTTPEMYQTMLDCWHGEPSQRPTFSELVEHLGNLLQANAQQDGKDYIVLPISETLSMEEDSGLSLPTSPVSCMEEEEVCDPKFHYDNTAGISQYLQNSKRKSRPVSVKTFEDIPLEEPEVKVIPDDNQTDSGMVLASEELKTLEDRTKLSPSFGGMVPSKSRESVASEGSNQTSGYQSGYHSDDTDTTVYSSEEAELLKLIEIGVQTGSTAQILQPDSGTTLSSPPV
UniProt Q9UKB1: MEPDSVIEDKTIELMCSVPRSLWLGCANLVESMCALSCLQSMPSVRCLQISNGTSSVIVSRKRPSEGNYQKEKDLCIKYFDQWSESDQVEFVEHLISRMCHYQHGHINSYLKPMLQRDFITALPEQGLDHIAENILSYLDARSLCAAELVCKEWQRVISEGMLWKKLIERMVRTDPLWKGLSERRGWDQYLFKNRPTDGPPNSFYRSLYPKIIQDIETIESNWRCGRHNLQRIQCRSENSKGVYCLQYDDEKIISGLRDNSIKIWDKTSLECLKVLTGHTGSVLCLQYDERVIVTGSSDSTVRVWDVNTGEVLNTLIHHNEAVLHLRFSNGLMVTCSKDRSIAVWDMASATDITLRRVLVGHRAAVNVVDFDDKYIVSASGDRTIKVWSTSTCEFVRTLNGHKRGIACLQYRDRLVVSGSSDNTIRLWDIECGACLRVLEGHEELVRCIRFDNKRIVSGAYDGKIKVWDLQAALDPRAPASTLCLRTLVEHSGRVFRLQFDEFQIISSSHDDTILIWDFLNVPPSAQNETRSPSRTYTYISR

What was measured:
[1] = target: GFP-tagged VEGFR2 (vascular endothelial growth factor receptor 2) (human) (UniProt P35968); assay: affinity purification with mass spectrometry; CiGEnC stably expressing GFP-VEGFR2 or GFP, serum-starved 1 h, stimulated with 40 ng/ml VEGF over a 30-min time course; lysis in 20 mM Tris pH7.5, 137 mM NaCl, 0.5% NP-40, 1 mM EDTA; GFP-Trap agarose beads 1 h at 4 °C; LTQ-Orbitrap Velos
[2] = target: GFP-tagged VEGFR2 (vascular endothelial growth factor receptor 2) (human) (UniProt P35968); assay: as above; remark: listed apart in the source

Row | Molecule | binding [1] | binding [2]
1 | ubiquitin E3 ligase β-Trcp2 (endogenous, CiGEnC) (from UniProt Q9UKB1 1-542) (enzyme) | binds | 
2 | raftlin-2 (endogenous, CiGEnC) (protein, UniProt Q52LD8 1-501) MGCGLRKLEDPDDSSPGKIFSTLKRPQVETKTEFAYEYVLLDFTLQASSNPEVIKINSILDIVTKVENYYLKGYIVGAIHPVIQPVGQRKHLPASYLYRVVLLRLKLSPKNSAAPSGQRRPRLVIEECPLTSEAQTNDAAKELIEKINVAAKRGMKFVGFISQHYSPSKFCNGTNHDGDIESMLHVRHGSDENCRSWNEGTLSGQSSESGIEEELHHESGQYQMEQNGSPTSSKSRKGEASDNKLYTVFNAFDDDSTSWAYQEGILSMKVTRKGSVISTLDADWLELTTFYYKQGLSLIDSFVFWETSKGEHLPKSLEGFFIYEEEGSGVPGSSRKGNDAIVVEQWTVIEGCEIKTDYGPLLHTLAEFGWLLTSVLPTPVLRHDSEGNLATKQIVFLQRPVMWNSAAQTPDKKASRHIKGEDKNKATSRSIGLDTTSSQPAESRHLPEECRLSPSRECWTKEGRLAQHNSFSGFSSSDNVLRELDDGQFDQEDGVTQVTCM |  | no binding
